Values from PubChem BioAssay AID743121 (NCATS, 2013)

Aim: 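Knock-downs that sensitise breast cancer cells to camptothecin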 (primary screen)
Cell system: MDA-MB-231 cells, a human breast cancer line
Reagent: single siRNA against human genes, 20 nM siRNA (0.8 pmol per well)
Timing: 120 h (drug added 48 h after transfection, read 72 h later)
Treatment: camptothecin 20 nM (about EC30) for 72 h; vehicle 0.1% DMSO in parallel plates
Measurement: 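Cell viability by ATP luminescence (CellTiter-Glo) as % of non-targeting siRNA wells, and the log2 ratio of viability without drug over viability with camptothecin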
Reading the numbers: log2 vehicle/camptothecin viability: higher = stronger sensitisation to camptothecin
Rule for the call: 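Each gene scored by redundant siRNA activity (RSA) over its individual siRNA ratios; a gene is called active at p < 0.001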
This is one part, drawn at random, of about 26,000 deposited reagents. 167 of all reagents (0.63%) count as active. 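Calls are per gene from RSA p-values that are not deposited; an individual active-marked siRNA can sensitise only weakly.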 A number with no mark means an inactive call. Reagents against one gene are numbered here. Not all columns of the deposit are shown.

F13B (coagulation factor XIII B chain) #1 → log2 vehicle/camptothecin viability: -0.248
F13B (coagulation factor XIII B chain) #2 → log2 vehicle/camptothecin viability: 0.158
F13B (coagulation factor XIII B chain) #3 → log2 vehicle/camptothecin viability: 0.182
F13B (coagulation factor XIII B chain) #4 → log2 vehicle/camptothecin viability: -0.0375
GLA (galactosidase alpha) #1 → log2 vehicle/camptothecin viability: -0.53
GLA (galactosidase alpha) #2 → log2 vehicle/camptothecin viability: -0.114
GLA (galactosidase alpha) #3 → log2 vehicle/camptothecin viability: -0.284
GLA (galactosidase alpha) #4 → log2 vehicle/camptothecin viability: -0.0455
SIAH1 (siah E3 ubiquitin protein ligase 1) #1 → log2 vehicle/camptothecin viability: 0.164
SIAH1 (siah E3 ubiquitin protein ligase 1) #2 → log2 vehicle/camptothecin viability: -0.057
SIAH1 (siah E3 ubiquitin protein ligase 1) #3 → log2 vehicle/camptothecin viability: -0.503
NPPB (natriuretic peptide B) #1 → log2 vehicle/camptothecin viability: -0.413
NPPB (natriuretic peptide B) #2 → log2 vehicle/camptothecin viability: -0.633
NPPB (natriuretic peptide B) #3 → log2 vehicle/camptothecin viability: -0.494
NPPB (natriuretic peptide B) #4 → log2 vehicle/camptothecin viability: -0.0521
ADH5 (alcohol dehydrogenase 5 (class III), chi polypeptide) #1 → log2 vehicle/camptothecin viability: 0.123
ADH5 (alcohol dehydrogenase 5 (class III), chi polypeptide) #2 → log2 vehicle/camptothecin viability: -0.00121
ADH5 (alcohol dehydrogenase 5 (class III), chi polypeptide) #3 → log2 vehicle/camptothecin viability: -0.00574
DAO (D-amino acid oxidase) #1 → log2 vehicle/camptothecin viability: -0.0269
DAO (D-amino acid oxidase) #2 → log2 vehicle/camptothecin viability: -0.752
DAO (D-amino acid oxidase) #3 → log2 vehicle/camptothecin viability: -0.368
DAO (D-amino acid oxidase) #4 → log2 vehicle/camptothecin viability: -0.517
RUNX2 (RUNX family transcription factor 2) #1 → log2 vehicle/camptothecin viability: -0.283
RUNX2 (RUNX family transcription factor 2) #2 → log2 vehicle/camptothecin viability: -0.115
RUNX2 (RUNX family transcription factor 2) #3 → log2 vehicle/camptothecin viability: -0.341
RUNX2 (RUNX family transcription factor 2) #4 → log2 vehicle/camptothecin viability: -0.202

Not a retest: an excerpt of the list.
RUNX2 (RUNX family transcription factor 2) #1 → log2 vehicle/camptothecin viability: -0.283
RUNX2 (RUNX family transcription factor 2) #2 → log2 vehicle/camptothecin viability: -0.115
